Residue numbers refer to the chain shown, from its start. Results are given in words; binding and its absence hold for the method and conditions named. Some binding calls cover weakened binding; strength is not graded here.

Chains of the proteins cited; added tags and fusions are not shown. Residues count along the entry.
UniProt P37172, residues 21-123: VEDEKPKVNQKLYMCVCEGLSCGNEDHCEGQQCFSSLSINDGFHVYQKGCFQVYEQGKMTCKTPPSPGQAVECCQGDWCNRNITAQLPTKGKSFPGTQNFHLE

The record followed here is patent US20240150474A1 (Regeneron, published 2024).

One test deals with T1, dimeric human ACVR1 (human, UniProt Q04771 21-123, limits assumed).
T1 construct: ACVR1'; also called Human Receptor ACVR1
T1 sequence (looked up): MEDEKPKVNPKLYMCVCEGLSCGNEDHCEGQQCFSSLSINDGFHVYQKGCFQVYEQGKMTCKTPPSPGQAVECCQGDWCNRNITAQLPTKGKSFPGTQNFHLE
The experiment in a line: SPR Biacore T200, mAb captured by anti-human Fab, dimeric receptor injected, 25C. Background: Surface plasmon resonance follows binding to a sensor surface in real time, without labels.

In the next test the target is T2, dimeric mouse ACVR1 (mouse, UniProt P37172 21-123, limits assumed).
T2 construct: also called Mouse Receptor ACVR1
T2 sequence (looked up): T1 sequence (looked up) with M1V, P10Q
Described as above.

B1: REGN 5168 (antibody, human IgG4 S228P, kappa, V domains shown)
VH: QVQLVQSGAEVKEPGASVKVSCKASGYTFAEYYMHWVRQAPGQGLEWMGAINPSGSHTSYAQKFQGRVTMTRDTSTSTVYMELSSLRSEDTAVYYCARSISGKRGGDYYGMDVWGQGTTVTVSS
VL: DIQMTQSPSTLSASVGDRVTITCRASQSISSWLAWYQQKPGKAPKLLIYKASSLESGVPSRFSGSGSGTEFTLTISSLQPDDFATYYCQQYSIFPFTFGGGTKVEIKR
notes: also called REGN 5168-L1
In the case of B1, the binding result with dimeric human ACVR1 and in the test with dimeric mouse ACVR1 was “binds” in each case.

B2: REGN 5167 (antibody, human IgG4 S228P, kappa, V domains shown)
VH: QLQLQESGPGLVKPSETLSLTCTVSGGSITSSSYYWAWIRQPPGKGLEWIGKIYYSGSTHYNPSLKSRVTISVDTSKNQFSLKLSSVTAADTAVYYCARVGGHGYGDSAGLAFDIWGQGTMVTVSS
VL: EIVLTQSPGTLSLSPGERATLSCRASQSVSSAFLAWYQQKPGQAPRLLIYGASYRHTGIPDRFSGSGSGTDFTLTISRLEPEDFAVYYCQHYGVGPRTFGGGTKVEIKR
notes: also called REGN 5167-L1
With B2, the binding entry in the test with dimeric human ACVR1 and with dimeric mouse ACVR1 was “binds” in each case.
